Screen size: about 330,000 compounds; about 7,700 (2.3%) were called active. Inconclusive means that the source gave no clear call. Such entries were picked first, then a sample of the others. Calls follow the shape of the dose curve; as a rule, active = well fitted inhibition curve with a large enough effect; inconclusive = small, poorly fitted or top-dose-only effect, or effect the other way; inactive = flat fitted curve, though single readings scatter. Where the call is inconclusive, the potency comes from a doubtful curve fit.
Assay: qHTS screen for small molecules that inhibit ELG1-dependent DNA repair in human embryonic kidney (HEK293T) cells expressing luciferase-tagged ELG1; also: nearly all actives have a fitted effect of over 55% in size
Details: HEK293T ELG1-luciferase reporter, luminescence, 16 h, DNA damage induced by 5-fluorouridine; series mostly up to 46.1 µM
How it was run: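 Luminescence from the luciferase reporter, measured 30 min after ONE-Glo reagent at room temperature, was the read-out. Beforehand, 2,000 cells per well were exposed for 16 hr at 37 °C to 5-fluorouridine together with compound or vehicle.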
Potency is read from the fitted curve at half-maximal effect.

| SMILES | Potency |
| --- | --- |
| Cc1cccc(N2CCN(S(=O)(=O)c3ccc(Cl)nc3)CC2C)c1 (stereo not drawn) | inactive |
| CCOc1ccccc1N1CC(C(=O)NNC(=O)c2cc(OC)c(OC)c(OC)c2)CC1=O (stereo not drawn) | inactive |
| CN(CC(=O)Nc1ccc(F)cc1)C(=O)c1cn(-c2ccccc2)nc1-c1cccs1 | inconclusive: 29.1 µM [inhibitor, single point] |
| O=C(CSCc1cccc(Br)c1)N=Nc1c(O)[nH]c2ccccc12 | inactive |
| Cc1cn([C@H](C(=O)NCCCCCCCCCCC(=O)N2CCN(C(=O)OC(C)(C)C)CC2)[C@@H](C)O)nn1 | inconclusive: 28.2 µM [inhibitor, single point] |
| Cc1ccc(Cl)cc1N1CCN(Cc2nc3c(c(=O)[nH]c(=O)n3C)n2Cc2ccccc2F)CC1 | inconclusive: 13 µM [inhibitor, partial curve] |
| O=C(Nc1cccc2ncccc12)c1cc(Br)ccc1Cl | inconclusive: 1.16 µM [inhibitor, single point] |
| O=C(COc1cccc(Cl)c1Cl)NC1CC1 | inconclusive: 18.3 µM [activator, single point] |
| CC1CN(CC(=O)NCc2ccccc2)CC(C)O1 (stereo not drawn) | inactive |
| Cc1cc(CC(C)C)n(-c2nc3ccccc3c(=O)n2OCC(N)=O)n1 | inconclusive: 22.4 µM [activator, single point] |
| CN(C)CCNC(=O)Cn1nc(C(F)F)cc1C1CC1 | inconclusive: 29.1 µM [activator, partial curve, poor fit] |
| COc1cccc2sc(N(CCCN(C)C)C(=O)COc3ccc(Cl)cc3)nc12 | inactive |
| CCCn1c(=O)[nH]c(=O)c2c1nc(-c1ccc(OC(F)(F)C(F)C(F)(F)F)cc1)n2CCOC (stereo not drawn) | inconclusive: 18.4 µM [inhibitor, single point] |
| CCCC1=NN(C(=O)Cc2ccc(OC)cc2)C(O)(C(F)(F)F)C1 (stereo not drawn) | inactive |
| O=C(CCS(=O)(=O)c1ccccc1)NCc1ccccc1 | inconclusive: 32.6 µM [activator, single point] |
| CCC(CO)Oc1cc(NC(=O)c2ccccc2F)c2ncn(C(C)C)c2c1 (stereo not drawn) | active: 5.17 µM |
| Cc1c(C(=O)NCCc2ccccc2)oc2ccc(S(=O)(=O)N3CCC4(CC3)OCCO4)cc12 | inconclusive: 18.4 µM [inhibitor, single point] |
| Cn1c(N2CCOCC2)c(C#N)c2ccccc21 | inactive |
| CCN(CC(=O)Nc1ccccc1OC)C(=O)c1ccc(NC(=O)c2cccs2)cc1 | inconclusive: 25.9 µM [inhibitor, single point] |
| CC(Nc1ccc(Cl)cc1)c1cc(Cl)ccc1O (stereo not drawn) | inactive |
| O=C(O)Cc1ccc(C(=O)c2ccccc2)s1 | inconclusive: 32.6 µM [activator, partial curve, poor fit] |
| O=C(Nc1ccc2oc(-c3ccccc3F)nc2c1)c1cncc(Br)c1 | inconclusive: 18.4 µM [activator, partial curve, poor fit] |
| CCOC(=O)C1Cn2c(nc3c(c2=O)C(C)(C)Cc2ccccc2-3)S1 (stereo not drawn) | inconclusive: 25.9 µM [inhibitor, single point] |
| CCOc1cc(CNc2ccc(O)cc2)ccc1OCc1ccc(Cl)cc1Cl | inconclusive: 11.6 µM [inhibitor, partial curve, poor fit] |
| CCNC(=O)c1c(NC(=O)C2COc3ccccc3O2)sc2c1CCCC2 (stereo not drawn) | inactive |

By substructure: the compounds so far containing an NH in an aromatic ring.

| SMILES | Potency |
| --- | --- |
| O=C(CSCc1cccc(Br)c1)N=Nc1c(O)[nH]c2ccccc12 | inactive |
| Cc1ccc(Cl)cc1N1CCN(Cc2nc3c(c(=O)[nH]c(=O)n3C)n2Cc2ccccc2F)CC1 | inconclusive: 13 µM [inhibitor, partial curve] |
| CCCn1c(=O)[nH]c(=O)c2c1nc(-c1ccc(OC(F)(F)C(F)C(F)(F)F)cc1)n2CCOC (stereo not drawn) | inconclusive: 18.4 µM [inhibitor, single point] |

(listing goes on)

| SMILES | Potency |
| --- | --- |
| Cc1ccc2[nH]c(-c3cccc(F)c3)cc(=O)c2c1 | inconclusive: 16.4 µM [activator, partial curve] |
| CCc1ccc(-c2csc3[n+]2CCN3C(C)=O)cc1 | inconclusive: 29.1 µM [inhibitor, single point] |
| Cc1nn(C)c(Cl)c1/C=N/OC(=O)c1ccc(F)cc1 | inactive |
| C=CCN(C)CC/C=C1\c2ccccc2CSc2ccccc21 | inactive |
| COCCNc1nnc(SCC(=O)Nc2cc(-c3ccccc3)nn2-c2ccccc2)s1 | active: 20.6 µM |
| O=S(=O)(Nc1ccccc1)c1ccc(NS(=O)(=O)c2c(F)cccc2F)cc1 | inactive |
| Cc1ccc(OCc2ccc(C(=O)Nc3nccs3)o2)cc1C | inconclusive: 7.08 µM [activator, partial curve, poor fit] |
| Cc1cc(C)c2nc(-c3ccccn3)cc(C(=O)NCc3ccc(S(N)(=O)=O)cc3)c2c1 | inactive |
| CCOc1cc(C(=O)Nc2ccc(N3CCOCC3)cc2)cc(Br)c1OC | inactive |
| Cc1cc(Nc2ccc3c(c2)OCCO3)c2cc(Cl)ccc2n1 | inconclusive: 32.6 µM [inhibitor, single point] |
| CN(Cc1c(F)cccc1Cl)C(=O)CCc1c[nH]c2ccccc12 | inactive |
| COc1cccc(OC)c1C(=O)N1CCN(C(=O)c2ccc(-c3ccccc3)cc2)CC1 | inactive |
| CCc1ccc(NC(=O)CSc2nncn2-c2cccnc2)cc1 | inconclusive: 13 µM [activator, partial curve] |
| O=C(Cn1c(=O)c2cccn2c2ccccc21)NCCc1ccccc1 | inconclusive: 20.6 µM [activator, single point] |
| COc1ccc(NC(=S)NC(=O)c2cc3ccccc3o2)c(OC)c1 | inactive |
| Cc1cc(NC(=O)CSCC(=O)N2CCN(c3cccc(C(F)(F)F)c3)CC2)no1 | inconclusive: 1.16 µM [inhibitor, single point] |
| Cc1nn(-c2ccccc2)c(C)c1C(=O)OCC(=O)Nc1ccccc1 | inconclusive: 3.66 µM [activator, single point] |
| O=C(O)CCNc1ccc(Cl)cc1 | inconclusive: 0.259 µM [inhibitor, single point] |
| CN(C)/C=C(\C(=O)c1cccc(Cl)c1)c1nnnn1-c1ccccc1 | inactive |
| CCn1c(SCc2ccc(F)cc2)nnc1C1CCN(S(=O)(=O)c2ccc(OC)cc2)CC1 | inconclusive: 25.9 µM [inhibitor, single point] |
| CCOC(=O)Cn1c(=NC(=O)C(C)C)sc2c(C)cc(C)cc21 | active: 3.26 µM |
| O=[N+]([O-])c1cccc(N/N=C/c2cc([N+](=O)[O-])ccc2O)c1 | inconclusive: 20.6 µM [activator, partial curve] |
| O=C(c1c(F)cccc1F)N1CCCC(c2nc(-c3cccs3)no2)C1 (stereo not drawn) | inconclusive: 2.59 µM [activator, full curve] |
| CCOC(=O)CSc1nc2ccc(C)cc2n2cnnc12 | inactive |
| CSc1nnc2c3cc(F)ccc3n(Cc3ccccc3)c2n1 | inactive |

| SMILES | Potency |
| --- | --- |
| CCOC(=O)Nc1ccc2c(c1)N(C(=O)CN(C)C)c1ccccc1CC2 | inconclusive: 0.231 µM [inhibitor, partial curve, poor fit] |
| CC1=CC(=O)CC(C)(C)[C@@]1(O)/C=C/[C@@H](C)O[C@@H]1O[C@H](CO)[C@@H](O)[C@H](O)[C@H]1O | inactive |
| Cn1c(CNc2ccc(F)cc2)nc2ccccc21 | inconclusive: 5.62 µM [activator, partial curve, poor fit] |
| O=C(NC(Cc1ccccc1)C(=O)O)/C(=C\c1ccc(Cl)cc1)NC(=O)c1ccccc1 (stereo not drawn) | inconclusive: 3.26 µM [inhibitor, full curve] |
| COc1ccc(CN(C)Cc2nc(Cc3cccc(F)c3)no2)c2cccnc12 | inconclusive: 2.59 µM [inhibitor, full curve, poor fit] |
| N#CCNC(=O)C1c2ccccc2Oc2ccccc21 | inactive |
| O=C1OC(c2ccc(Cl)cc2)/C(=C(/O)c2ccccc2)C1=O (stereo not drawn) | inconclusive: 20.6 µM [activator, partial curve] |
| Cc1ccc2[nH]c(=O)c(CN(Cc3ccc4c(c3)OCO4)Cc3nnnn3Cc3ccco3)cc2c1 | inconclusive: 29.1 µM [inhibitor, single point] |
| O=C(CSC(=S)N1CCCC1)Nc1ncc(Cl)cc1Cl | inactive |
| COc1ccc(C(=O)C/C(=C\C(=O)c2ccc(C)cc2)c2ccccc2)cc1 | inactive |
| Cn1c(=O)[nH]c(=O)c2c1nc(N1CCCCC1)n2C/C=N/Nc1ccc(C(=O)O)cc1 | inconclusive: 20.6 µM [activator, single point] |
| COc1ccccc1OCCSc1nc(C)c(Cc2ccccc2)c(=O)[nH]1 | inactive |
| Cc1cccnc1NC(=O)c1ccc(NS(=O)(=O)c2ccc3[nH]c(=O)[nH]c3c2)cc1 | inactive |
| COc1ccc2cc(C(=O)NCC3CCCO3)[nH]c2c1 (stereo not drawn) | inconclusive: 20.6 µM [activator, partial curve] |
| O=S(=O)(c1ccc(NC(=S)NCc2ccncc2)cc1)N1CCCCC1 | inconclusive: 32.6 µM [inhibitor, single point] |
| CCOC(=O)C1CCCN(CC(=O)Nc2ccc(C(=O)Nc3ccccc3OC)cc2)C1 (stereo not drawn) | inconclusive: 20.6 µM [inhibitor, single point] |
| Cc1ccc(S(=O)(=O)Nc2ccccc2-c2nc3ccccc3[nH]c2=O)cc1 | inactive |
| CCOC(=O)c1ccc(NC(=O)CN2C(=O)CSCC2=O)cc1 | inactive |
| O=C1CC(c2cc(Br)ccc2F)c2cc3c(cc2N1)CCC3 (stereo not drawn) | inconclusive: 6.51 µM [inhibitor, single point] |
| O=C(Nc1cccnc1)c1ccc(-c2cc(Cl)ccc2Cl)o1 | inconclusive: 18.3 µM [inhibitor, single point] |
| N#Cc1ccc(-c2c(-c3ccccc3)ncc3cc(F)ccc23)cc1 | inconclusive: 29.1 µM [inhibitor, single point] |
| O=C(CSc1nncs1)Nc1ccc2[nH]c(=O)[nH]c2c1 | inactive |
| Cc1ccc(NC(=O)OCCNC(=O)c2ccncc2)cc1 | inconclusive: 18.3 µM [activator, single point] |

Of the compounds above, these have a cyano group.

| SMILES | Potency |
| --- | --- |
| Cn1c(N2CCOCC2)c(C#N)c2ccccc21 | inactive |
| N#CCNC(=O)C1c2ccccc2Oc2ccccc21 | inactive |
| N#Cc1ccc(-c2c(-c3ccccc3)ncc3cc(F)ccc23)cc1 | inconclusive: 29.1 µM [inhibitor, single point] |

Source: PubChem BioAssay AID504467 (National Center for Advancing Translational Sciences (NCATS), 2011)
